Measured values published in the supplement of paper PMC12067093, “Discovery and optimisation of a covalent ligand for TRIM25 and its application to targeted protein ubiquitination” (Chemical Science, 2025).
The list shows a part of the results.

Protein sequences, listed by entry. Tags and fused reporters are not part of them. Lines headed by an entry give the natural chain unless they say otherwise; changes in a name come on top.
UniProt Q99575: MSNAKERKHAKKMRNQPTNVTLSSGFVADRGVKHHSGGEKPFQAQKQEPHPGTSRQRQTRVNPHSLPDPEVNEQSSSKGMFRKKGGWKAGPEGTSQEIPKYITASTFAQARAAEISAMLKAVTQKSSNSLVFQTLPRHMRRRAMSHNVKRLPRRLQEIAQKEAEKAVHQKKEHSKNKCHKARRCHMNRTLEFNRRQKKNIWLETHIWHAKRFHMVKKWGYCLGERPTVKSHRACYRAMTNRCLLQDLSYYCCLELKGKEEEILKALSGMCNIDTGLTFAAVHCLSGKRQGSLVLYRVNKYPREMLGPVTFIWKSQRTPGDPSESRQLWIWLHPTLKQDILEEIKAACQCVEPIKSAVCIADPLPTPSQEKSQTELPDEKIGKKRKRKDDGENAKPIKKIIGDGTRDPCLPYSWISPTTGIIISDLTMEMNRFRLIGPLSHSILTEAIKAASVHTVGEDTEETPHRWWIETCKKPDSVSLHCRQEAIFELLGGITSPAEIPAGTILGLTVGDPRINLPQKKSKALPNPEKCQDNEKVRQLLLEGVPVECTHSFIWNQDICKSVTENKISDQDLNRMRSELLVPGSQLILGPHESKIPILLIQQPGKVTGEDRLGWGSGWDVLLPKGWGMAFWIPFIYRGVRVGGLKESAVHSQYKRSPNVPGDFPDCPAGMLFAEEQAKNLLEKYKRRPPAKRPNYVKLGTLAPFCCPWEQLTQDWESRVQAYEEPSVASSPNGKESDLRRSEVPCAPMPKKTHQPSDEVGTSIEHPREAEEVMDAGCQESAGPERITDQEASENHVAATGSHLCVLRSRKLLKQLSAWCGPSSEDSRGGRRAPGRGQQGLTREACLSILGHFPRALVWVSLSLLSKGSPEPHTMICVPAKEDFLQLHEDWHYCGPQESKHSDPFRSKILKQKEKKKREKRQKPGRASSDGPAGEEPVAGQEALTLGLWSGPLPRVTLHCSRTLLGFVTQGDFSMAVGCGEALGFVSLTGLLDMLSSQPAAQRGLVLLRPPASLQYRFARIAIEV
UniProt Q7Z3K3: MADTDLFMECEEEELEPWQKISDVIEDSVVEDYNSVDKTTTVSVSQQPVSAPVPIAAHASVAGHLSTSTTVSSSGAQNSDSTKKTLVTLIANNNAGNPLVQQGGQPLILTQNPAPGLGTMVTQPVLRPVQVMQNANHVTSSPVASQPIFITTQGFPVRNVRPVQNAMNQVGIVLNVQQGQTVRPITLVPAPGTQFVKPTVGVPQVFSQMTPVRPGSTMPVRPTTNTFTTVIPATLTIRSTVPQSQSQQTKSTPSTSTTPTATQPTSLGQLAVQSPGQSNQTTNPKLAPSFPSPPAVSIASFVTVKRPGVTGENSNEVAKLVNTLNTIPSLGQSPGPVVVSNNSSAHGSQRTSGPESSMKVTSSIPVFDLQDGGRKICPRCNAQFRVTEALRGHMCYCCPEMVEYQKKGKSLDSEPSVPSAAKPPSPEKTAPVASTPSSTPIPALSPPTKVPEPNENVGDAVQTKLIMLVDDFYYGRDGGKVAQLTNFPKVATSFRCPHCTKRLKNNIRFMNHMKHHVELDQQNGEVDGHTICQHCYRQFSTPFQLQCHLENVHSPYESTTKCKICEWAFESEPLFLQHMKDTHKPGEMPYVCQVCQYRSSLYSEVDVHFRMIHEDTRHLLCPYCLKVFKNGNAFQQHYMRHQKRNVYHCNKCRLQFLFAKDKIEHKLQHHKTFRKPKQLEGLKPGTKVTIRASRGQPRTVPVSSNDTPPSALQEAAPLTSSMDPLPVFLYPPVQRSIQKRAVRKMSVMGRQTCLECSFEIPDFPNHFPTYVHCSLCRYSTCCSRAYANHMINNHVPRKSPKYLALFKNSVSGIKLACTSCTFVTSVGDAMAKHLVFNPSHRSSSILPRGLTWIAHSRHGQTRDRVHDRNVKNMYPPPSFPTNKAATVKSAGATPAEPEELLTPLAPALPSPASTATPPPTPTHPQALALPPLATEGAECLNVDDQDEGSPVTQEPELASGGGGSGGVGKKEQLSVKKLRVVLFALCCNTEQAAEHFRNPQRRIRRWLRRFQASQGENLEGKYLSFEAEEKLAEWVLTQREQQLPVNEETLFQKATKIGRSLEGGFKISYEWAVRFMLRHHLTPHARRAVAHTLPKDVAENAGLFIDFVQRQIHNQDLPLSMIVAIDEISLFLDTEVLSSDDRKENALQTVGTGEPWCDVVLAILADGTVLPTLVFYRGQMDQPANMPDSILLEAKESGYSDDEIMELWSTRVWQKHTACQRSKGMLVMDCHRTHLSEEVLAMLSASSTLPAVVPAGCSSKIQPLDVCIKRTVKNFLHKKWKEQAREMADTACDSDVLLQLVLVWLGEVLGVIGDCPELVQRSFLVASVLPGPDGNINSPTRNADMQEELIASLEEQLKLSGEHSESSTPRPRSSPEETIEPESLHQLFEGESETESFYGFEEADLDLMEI
UniProt O95602, whole entry, looked up: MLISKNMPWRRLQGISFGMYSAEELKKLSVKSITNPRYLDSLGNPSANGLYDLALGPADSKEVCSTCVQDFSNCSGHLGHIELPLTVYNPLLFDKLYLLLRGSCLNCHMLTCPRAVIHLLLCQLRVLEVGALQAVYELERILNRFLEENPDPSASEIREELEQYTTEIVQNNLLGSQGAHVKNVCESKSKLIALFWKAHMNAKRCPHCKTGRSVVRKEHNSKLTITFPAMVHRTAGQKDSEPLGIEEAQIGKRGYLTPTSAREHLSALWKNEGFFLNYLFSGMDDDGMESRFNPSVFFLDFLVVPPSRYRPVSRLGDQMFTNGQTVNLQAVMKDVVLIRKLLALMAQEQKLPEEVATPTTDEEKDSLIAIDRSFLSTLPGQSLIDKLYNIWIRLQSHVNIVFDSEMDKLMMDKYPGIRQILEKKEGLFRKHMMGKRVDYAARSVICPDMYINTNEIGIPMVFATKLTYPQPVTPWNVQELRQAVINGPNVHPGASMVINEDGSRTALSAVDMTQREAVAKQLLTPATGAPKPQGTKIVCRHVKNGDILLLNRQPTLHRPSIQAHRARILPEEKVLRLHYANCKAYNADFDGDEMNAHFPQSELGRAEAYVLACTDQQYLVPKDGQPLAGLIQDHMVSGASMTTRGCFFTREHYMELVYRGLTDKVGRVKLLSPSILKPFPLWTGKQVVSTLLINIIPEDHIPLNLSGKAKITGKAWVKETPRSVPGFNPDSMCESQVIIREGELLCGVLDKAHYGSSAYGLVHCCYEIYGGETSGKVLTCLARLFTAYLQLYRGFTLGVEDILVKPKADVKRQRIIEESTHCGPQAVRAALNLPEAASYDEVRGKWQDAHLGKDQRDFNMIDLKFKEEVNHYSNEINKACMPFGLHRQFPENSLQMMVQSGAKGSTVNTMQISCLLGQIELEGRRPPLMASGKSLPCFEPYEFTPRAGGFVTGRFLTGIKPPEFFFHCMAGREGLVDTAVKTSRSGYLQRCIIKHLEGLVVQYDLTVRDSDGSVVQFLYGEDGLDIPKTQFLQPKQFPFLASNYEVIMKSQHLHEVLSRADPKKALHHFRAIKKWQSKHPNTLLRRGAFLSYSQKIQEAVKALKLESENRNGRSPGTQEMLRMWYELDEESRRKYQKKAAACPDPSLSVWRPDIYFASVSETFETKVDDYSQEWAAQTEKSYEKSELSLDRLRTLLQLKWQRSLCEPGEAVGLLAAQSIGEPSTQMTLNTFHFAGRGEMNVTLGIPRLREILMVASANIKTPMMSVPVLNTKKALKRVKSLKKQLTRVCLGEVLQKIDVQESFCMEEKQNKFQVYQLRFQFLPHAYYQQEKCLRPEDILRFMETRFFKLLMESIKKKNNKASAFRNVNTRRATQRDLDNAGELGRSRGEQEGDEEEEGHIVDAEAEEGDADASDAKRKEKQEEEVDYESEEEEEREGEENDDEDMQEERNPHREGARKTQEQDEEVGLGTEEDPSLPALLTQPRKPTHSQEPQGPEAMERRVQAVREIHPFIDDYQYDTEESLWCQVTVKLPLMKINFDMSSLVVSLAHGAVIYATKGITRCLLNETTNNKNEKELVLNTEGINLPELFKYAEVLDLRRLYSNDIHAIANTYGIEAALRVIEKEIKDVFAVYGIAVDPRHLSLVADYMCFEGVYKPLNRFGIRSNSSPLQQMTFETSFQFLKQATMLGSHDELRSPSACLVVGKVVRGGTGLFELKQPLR
UniProt P16435: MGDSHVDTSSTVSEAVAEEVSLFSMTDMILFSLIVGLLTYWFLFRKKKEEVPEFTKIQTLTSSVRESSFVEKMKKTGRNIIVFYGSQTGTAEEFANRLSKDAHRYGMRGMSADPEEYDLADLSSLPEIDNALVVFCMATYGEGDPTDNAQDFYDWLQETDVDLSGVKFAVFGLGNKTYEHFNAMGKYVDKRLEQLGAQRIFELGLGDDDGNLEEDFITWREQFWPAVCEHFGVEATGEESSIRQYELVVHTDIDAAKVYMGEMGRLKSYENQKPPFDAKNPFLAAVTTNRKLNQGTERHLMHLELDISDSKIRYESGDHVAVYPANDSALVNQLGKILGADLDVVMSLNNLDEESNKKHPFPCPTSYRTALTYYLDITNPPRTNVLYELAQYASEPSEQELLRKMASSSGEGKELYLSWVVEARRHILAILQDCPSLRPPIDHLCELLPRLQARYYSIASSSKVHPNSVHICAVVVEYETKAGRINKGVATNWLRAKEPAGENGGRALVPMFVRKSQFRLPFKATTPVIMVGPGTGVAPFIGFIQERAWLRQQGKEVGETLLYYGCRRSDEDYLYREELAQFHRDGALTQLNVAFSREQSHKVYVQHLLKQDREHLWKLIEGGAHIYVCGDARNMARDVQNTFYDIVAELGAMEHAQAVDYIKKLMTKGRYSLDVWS
UniProt Q9GZS1, whole entry, looked up: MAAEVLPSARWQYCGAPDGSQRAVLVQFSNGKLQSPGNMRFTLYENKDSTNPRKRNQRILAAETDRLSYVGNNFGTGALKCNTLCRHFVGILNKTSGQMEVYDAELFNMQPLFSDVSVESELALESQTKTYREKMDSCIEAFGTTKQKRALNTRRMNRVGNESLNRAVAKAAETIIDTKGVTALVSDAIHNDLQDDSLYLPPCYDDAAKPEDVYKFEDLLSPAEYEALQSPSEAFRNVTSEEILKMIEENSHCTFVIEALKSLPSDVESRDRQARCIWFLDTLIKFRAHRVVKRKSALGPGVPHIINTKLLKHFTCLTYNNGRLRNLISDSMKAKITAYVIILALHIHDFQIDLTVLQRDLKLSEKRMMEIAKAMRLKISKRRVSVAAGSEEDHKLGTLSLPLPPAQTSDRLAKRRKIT
UniProt Q15181: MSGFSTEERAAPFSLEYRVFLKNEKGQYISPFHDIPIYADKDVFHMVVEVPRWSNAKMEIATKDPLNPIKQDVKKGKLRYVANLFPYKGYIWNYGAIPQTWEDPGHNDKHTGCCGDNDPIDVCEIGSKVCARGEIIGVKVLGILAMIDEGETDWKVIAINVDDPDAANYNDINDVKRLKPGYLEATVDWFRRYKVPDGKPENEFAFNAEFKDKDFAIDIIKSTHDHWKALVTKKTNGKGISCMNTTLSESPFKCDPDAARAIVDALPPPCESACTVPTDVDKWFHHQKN
UniProt Q8WZA1: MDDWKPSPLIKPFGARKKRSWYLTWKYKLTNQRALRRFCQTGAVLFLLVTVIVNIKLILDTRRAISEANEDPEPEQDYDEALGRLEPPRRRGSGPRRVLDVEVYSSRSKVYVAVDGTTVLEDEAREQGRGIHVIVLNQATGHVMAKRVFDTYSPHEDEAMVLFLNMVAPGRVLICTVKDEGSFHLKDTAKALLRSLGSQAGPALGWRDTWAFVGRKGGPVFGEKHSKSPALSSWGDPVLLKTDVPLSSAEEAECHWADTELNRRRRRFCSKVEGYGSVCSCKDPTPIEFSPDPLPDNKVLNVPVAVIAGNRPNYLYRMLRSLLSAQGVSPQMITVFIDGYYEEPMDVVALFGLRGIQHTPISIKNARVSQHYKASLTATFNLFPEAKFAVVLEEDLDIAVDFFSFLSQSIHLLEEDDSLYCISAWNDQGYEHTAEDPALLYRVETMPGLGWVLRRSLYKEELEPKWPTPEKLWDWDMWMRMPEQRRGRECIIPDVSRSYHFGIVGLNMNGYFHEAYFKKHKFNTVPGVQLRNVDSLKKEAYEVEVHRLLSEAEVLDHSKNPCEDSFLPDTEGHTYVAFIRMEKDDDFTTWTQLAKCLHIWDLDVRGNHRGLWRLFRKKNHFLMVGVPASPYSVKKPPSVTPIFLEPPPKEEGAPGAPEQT
UniProt O15160, whole entry, looked up: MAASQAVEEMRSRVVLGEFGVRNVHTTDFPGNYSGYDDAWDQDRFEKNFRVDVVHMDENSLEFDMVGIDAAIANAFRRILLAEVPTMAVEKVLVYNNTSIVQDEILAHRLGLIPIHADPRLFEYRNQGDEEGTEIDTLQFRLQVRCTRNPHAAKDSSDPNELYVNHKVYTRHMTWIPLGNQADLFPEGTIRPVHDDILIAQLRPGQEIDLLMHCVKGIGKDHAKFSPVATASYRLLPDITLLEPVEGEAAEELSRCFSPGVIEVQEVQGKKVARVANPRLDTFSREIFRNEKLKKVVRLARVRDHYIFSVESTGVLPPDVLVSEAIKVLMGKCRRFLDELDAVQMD

Compound: CC1Cc2ccccc2N1C(=O)C1CCCN(C1)C(=O)CCl (mixture of isomers) [TRIM25 ligand 11 (diastereomer mixture)]
Assay: probe-labelled cysteine peptide fold change vs DMSO (competition) (log2 fold change); higher = less target engagement (more negative = stronger competition)
Conditions: THP-1, incubation time: 4 h
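Note: competitive chemoproteomic profiling in live THP-1 cells with an iodoacetamide desthiobiotin (IA-DTB) probe, comparing probe-labelled peptide intensities in compound-treated cells against DMSO-treated controls.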

Row | Target | probe-labelled cysteine peptide fold change (10 µM) | probe-labelled cysteine peptide fold change (50 µM)
1 | POLD1_P28340_1061+1071_CQGSLHEDVICTSR (UniProt P28340) | 0.00175 | 0.144
2 | PPIA_P62937_161_ITIADCGQLE (UniProt P62937) | 0.0279 | -0.165
3 | POP1_Q99575_530_CQDNEK (UniProt Q99575) | -0.0863 | 0.0606
4 | POGZ_Q7Z3K3_1219_HTACQR (UniProt Q7Z3K3) | -0.0142 | 0.0316
5 | PPIG_Q13427_33_VVFELFSDVCPK (UniProt Q13427) | 0.0131 | -0.047
6 | POLR1A_O95602_1289_VCLGEVLQK (UniProt O95602) | 0.0326 | 0.146
7 | POLA1_P09884_1393_SLYTQLCFYR (UniProt P09884) | -0.132 | -0.0914
8 | POLR2I_P36954_42+52_NCDYQQEADNSCIYVNK (UniProt P36954) | 0.0911 | -0.0405
9 | POR_P16435_434+445_HILAILQDCPSLRPPIDHLCELLPR (UniProt P16435) | 0.00998 | -0.182
10 | PPCDC_Q96CD2_116_VASGICDNLLTCVMR (UniProt Q96CD2) | -0.00923 | -0.0174
11 | POLR1E_Q9GZS1_316_HFTCLTYNNGR (UniProt Q9GZS1) | 0.142 | -0.0489
12 | POLDIP3_Q9BY77_301_VTEEDIVELFCVCGALKR (UniProt Q9BY77) | -0.169 | -0.0607
13 | POLA2_Q14181_556_DVLGCVCVNPGR (UniProt Q14181) | -0.0778 | 0.171
14 | POLR1A_O95602_880_ACMPFGLHR (UniProt O95602) | -0.0708 | -0.0333
15 | PNPO_Q9NVS9_156_LPEEEAECYFHSRPK (UniProt Q9NVS9) | -0.0649 | -0.214
16 | POLR2A_P24928_1430_CSFEETVDVLMEAAAHGESDPMK (UniProt P24928) | -0.187 | -0.147
17 | PPA1_Q15181_274_AIVDALPPPCESACTVPTDVDK (UniProt Q15181) | 0.0383 | -0.238
18 | POMGNT1_Q8WZA1_254_TDVPLSSAEEAECHWADTELNR (UniProt Q8WZA1) | -0.234 | -0.213
19 | POLR2A_P24928_641_VVVENGELIMGILCK (UniProt P24928) | 0.00875 | -0.126
20 | POLRMT_O00411_413_VCVVSVEKPTLPSK (UniProt O00411) | -0.0627 | 0.103

Looked up one by one from the list above, 2 records:
Row | Target | probe-labelled cysteine peptide fold change (10 µM) | probe-labelled cysteine peptide fold change (50 µM)
17 | PPA1_Q15181_274_AIVDALPPPCESACTVPTDVDK (UniProt Q15181) | 0.0383 | -0.238
9 | POR_P16435_434+445_HILAILQDCPSLRPPIDHLCELLPR (UniProt P16435) | 0.00998 | -0.182

Following part:

Row | Target | probe-labelled cysteine peptide fold change (10 µM) | probe-labelled cysteine peptide fold change (50 µM)
21 | POR_P16435_434_RHILAILQDCPSLRPPIDHLCELLPR (UniProt P16435) | 0.0292 | 0.109
22 | POLD2_P49005_92_CCVVGTLFK (UniProt P49005) | 0.0834 | 0.165
23 | POLDIP2_Q9Y2S7_143_DCPHISQR (UniProt Q9Y2S7) | 0.173 | -0.356
24 | POLR1C_O15160_214_PVHDDILIAQLRPGQEIDLLMHCVK (UniProt O15160) | -0.00122 | -0.0368
25 | POC5_Q8NA72_360_GVCALNLEAMTIFQNR (UniProt Q8NA72) | -0.25 | -0.219
26 | POLM_Q9NP87_222_VVQELLEHGVCEEVER (UniProt Q9NP87) | -0.0574 | -0.00939
27 | PPA2_Q9H2U2_180_ILSCGEVIHVK (UniProt Q9H2U2) | 0.043 | -0.0983
28 | POLR3K_Q9Y2Y1_97_CCNAQCGHR (UniProt Q9Y2Y1) | -0.244 | 0.109
29 | POFUT1_Q9H488_283_STAAPLTMTMCLPDLK (UniProt Q9H488) | -0.116 | 0.0833
30 | POLR1A_O95602_582_LHYANCK (UniProt O95602) | 0.0347 | 0.0645
31 | PPA1_Q15181_113+114_HTGCCGDNDPIDVCEIGSK (UniProt Q15181) | 0.122 | -0.072
32 | POLE_Q07864_1935_IHCGLQDSQK (UniProt Q07864) | -0.0394 | -0.0431
33 | PPA1_Q15181_254_CDPDAAR (UniProt Q15181) | -0.0372 | -0.204
34 | POLR2A_P24928_1050_STLCSR (UniProt P24928) | -0.009 | 0.0142
35 | POLR2A_P24928_602_QIFSLIIPGHINCIR (UniProt P24928) | -0.145 | 0.025
36 | POLR1B_Q9H9Y6_847_ENCVVDNIK (UniProt Q9H9Y6) | -0.0181 | -0.0261
37 | POP1_Q99575_819_QLSAWCGPSSEDSR (UniProt Q99575) | -0.0379 | -0.107
38 | POP1_Q99575_876_GSPEPHTMICVPAK (UniProt Q99575) | 0.0403 | -0.121
39 | POGZ_Q7Z3K3_624_HLLCPYCLK (UniProt Q7Z3K3) | -0.277 | -0.0938
